# From the supplement of paper PMC11732987, “Enantioselective OTUD7B fragment discovery through chemoproteomics screening and high-throughput optimisation” (Communications Chemistry, 2025)
# Amino acid sequences for entries named in this document (tags omitted). A change or cut given only in a name is not applied to a line headed by its entry. Residues count along the entry.
# UniProt Q93008, whole entry, looked up: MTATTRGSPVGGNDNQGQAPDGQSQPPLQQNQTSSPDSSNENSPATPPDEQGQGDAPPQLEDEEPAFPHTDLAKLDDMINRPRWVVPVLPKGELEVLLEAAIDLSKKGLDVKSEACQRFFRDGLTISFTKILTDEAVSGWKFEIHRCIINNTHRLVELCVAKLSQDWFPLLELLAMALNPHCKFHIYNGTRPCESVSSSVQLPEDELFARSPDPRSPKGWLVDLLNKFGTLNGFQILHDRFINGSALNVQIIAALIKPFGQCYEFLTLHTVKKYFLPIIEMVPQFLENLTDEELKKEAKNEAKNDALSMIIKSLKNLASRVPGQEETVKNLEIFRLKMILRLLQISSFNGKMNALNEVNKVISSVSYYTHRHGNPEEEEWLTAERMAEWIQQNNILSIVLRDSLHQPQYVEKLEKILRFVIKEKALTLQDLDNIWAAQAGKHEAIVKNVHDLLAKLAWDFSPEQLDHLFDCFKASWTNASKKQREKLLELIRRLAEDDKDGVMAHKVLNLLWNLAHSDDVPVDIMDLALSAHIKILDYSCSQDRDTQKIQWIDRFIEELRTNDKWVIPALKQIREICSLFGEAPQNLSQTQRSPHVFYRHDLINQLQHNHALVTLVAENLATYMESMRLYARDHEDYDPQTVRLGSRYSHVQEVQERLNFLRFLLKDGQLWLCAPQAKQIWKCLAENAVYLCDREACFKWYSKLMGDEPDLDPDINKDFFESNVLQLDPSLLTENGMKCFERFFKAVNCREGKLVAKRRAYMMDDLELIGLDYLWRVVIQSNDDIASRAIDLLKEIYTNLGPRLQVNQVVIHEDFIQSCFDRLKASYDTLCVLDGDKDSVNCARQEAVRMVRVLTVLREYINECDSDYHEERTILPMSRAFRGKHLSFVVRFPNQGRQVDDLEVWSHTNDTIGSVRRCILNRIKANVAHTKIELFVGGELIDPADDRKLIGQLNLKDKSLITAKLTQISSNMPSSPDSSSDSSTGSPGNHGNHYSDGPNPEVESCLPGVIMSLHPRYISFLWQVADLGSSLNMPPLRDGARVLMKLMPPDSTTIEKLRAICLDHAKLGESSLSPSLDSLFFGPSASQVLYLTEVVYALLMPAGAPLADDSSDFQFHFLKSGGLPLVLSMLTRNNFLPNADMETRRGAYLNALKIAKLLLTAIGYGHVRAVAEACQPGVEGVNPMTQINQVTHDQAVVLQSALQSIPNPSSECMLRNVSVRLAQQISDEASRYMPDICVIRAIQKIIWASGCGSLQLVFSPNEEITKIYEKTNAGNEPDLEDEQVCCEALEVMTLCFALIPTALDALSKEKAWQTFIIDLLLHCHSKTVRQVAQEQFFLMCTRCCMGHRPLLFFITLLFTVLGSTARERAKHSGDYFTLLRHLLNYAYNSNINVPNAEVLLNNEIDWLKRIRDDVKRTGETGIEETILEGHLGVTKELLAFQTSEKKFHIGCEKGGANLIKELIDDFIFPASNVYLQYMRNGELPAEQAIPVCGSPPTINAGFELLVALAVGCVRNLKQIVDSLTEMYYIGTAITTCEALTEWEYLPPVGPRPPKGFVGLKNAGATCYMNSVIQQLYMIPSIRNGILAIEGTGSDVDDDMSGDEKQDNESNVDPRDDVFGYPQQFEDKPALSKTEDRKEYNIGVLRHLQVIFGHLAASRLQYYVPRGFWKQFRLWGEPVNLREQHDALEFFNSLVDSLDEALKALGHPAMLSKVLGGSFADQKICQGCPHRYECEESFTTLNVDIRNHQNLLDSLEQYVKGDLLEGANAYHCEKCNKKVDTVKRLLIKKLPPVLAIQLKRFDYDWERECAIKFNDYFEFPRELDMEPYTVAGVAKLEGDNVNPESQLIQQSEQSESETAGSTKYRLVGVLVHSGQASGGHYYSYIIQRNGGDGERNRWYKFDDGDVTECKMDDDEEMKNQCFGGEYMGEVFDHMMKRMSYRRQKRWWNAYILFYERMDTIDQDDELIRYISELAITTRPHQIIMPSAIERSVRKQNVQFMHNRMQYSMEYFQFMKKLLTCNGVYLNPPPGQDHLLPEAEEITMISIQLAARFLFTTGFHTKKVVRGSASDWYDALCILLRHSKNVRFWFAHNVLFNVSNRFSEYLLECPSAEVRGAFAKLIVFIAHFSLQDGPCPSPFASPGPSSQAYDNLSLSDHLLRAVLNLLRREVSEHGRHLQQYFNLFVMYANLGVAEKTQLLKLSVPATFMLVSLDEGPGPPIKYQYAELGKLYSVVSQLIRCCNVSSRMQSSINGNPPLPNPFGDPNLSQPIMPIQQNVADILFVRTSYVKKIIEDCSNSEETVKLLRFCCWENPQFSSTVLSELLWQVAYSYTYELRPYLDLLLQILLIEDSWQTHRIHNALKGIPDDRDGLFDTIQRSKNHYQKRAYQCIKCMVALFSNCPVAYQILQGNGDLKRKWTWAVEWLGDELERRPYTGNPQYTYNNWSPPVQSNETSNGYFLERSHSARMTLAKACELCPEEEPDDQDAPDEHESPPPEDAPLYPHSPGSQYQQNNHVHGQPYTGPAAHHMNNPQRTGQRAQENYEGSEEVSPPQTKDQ
# UniProt Q9H267: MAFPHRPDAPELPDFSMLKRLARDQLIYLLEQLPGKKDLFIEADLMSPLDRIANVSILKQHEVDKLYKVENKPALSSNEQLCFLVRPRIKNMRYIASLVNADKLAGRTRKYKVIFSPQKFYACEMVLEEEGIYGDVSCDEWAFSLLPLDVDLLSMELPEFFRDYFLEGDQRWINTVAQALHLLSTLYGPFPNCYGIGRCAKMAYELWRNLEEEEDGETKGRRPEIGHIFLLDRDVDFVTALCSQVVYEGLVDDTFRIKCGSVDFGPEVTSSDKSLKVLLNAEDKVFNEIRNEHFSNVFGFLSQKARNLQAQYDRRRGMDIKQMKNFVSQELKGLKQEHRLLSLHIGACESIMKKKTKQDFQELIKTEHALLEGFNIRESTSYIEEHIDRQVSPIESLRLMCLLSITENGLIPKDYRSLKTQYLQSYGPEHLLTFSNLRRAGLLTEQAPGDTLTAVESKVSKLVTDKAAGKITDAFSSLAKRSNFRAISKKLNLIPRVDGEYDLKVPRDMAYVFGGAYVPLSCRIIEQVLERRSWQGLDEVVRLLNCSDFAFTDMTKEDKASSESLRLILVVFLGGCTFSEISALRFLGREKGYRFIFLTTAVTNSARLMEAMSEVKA
# UniProt Q16831, 139-164: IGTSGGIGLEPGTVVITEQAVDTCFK
# UniProt Q14CS0: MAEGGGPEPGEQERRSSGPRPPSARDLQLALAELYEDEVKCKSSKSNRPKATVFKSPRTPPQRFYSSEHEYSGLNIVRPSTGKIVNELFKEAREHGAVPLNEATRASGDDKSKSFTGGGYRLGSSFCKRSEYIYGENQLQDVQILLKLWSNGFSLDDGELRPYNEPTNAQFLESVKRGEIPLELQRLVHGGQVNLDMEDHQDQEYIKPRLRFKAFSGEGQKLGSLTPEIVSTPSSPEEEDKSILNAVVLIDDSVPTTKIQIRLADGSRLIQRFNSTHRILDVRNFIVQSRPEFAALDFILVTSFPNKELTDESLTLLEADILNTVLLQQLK
# UniProt Q9BZX2: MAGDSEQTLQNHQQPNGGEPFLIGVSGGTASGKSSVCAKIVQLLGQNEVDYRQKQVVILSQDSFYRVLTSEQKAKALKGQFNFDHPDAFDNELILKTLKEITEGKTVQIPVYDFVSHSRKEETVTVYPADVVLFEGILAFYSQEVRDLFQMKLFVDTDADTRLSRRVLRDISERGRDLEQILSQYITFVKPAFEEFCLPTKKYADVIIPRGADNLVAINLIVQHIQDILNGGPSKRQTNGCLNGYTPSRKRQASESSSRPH
# UniProt O95071: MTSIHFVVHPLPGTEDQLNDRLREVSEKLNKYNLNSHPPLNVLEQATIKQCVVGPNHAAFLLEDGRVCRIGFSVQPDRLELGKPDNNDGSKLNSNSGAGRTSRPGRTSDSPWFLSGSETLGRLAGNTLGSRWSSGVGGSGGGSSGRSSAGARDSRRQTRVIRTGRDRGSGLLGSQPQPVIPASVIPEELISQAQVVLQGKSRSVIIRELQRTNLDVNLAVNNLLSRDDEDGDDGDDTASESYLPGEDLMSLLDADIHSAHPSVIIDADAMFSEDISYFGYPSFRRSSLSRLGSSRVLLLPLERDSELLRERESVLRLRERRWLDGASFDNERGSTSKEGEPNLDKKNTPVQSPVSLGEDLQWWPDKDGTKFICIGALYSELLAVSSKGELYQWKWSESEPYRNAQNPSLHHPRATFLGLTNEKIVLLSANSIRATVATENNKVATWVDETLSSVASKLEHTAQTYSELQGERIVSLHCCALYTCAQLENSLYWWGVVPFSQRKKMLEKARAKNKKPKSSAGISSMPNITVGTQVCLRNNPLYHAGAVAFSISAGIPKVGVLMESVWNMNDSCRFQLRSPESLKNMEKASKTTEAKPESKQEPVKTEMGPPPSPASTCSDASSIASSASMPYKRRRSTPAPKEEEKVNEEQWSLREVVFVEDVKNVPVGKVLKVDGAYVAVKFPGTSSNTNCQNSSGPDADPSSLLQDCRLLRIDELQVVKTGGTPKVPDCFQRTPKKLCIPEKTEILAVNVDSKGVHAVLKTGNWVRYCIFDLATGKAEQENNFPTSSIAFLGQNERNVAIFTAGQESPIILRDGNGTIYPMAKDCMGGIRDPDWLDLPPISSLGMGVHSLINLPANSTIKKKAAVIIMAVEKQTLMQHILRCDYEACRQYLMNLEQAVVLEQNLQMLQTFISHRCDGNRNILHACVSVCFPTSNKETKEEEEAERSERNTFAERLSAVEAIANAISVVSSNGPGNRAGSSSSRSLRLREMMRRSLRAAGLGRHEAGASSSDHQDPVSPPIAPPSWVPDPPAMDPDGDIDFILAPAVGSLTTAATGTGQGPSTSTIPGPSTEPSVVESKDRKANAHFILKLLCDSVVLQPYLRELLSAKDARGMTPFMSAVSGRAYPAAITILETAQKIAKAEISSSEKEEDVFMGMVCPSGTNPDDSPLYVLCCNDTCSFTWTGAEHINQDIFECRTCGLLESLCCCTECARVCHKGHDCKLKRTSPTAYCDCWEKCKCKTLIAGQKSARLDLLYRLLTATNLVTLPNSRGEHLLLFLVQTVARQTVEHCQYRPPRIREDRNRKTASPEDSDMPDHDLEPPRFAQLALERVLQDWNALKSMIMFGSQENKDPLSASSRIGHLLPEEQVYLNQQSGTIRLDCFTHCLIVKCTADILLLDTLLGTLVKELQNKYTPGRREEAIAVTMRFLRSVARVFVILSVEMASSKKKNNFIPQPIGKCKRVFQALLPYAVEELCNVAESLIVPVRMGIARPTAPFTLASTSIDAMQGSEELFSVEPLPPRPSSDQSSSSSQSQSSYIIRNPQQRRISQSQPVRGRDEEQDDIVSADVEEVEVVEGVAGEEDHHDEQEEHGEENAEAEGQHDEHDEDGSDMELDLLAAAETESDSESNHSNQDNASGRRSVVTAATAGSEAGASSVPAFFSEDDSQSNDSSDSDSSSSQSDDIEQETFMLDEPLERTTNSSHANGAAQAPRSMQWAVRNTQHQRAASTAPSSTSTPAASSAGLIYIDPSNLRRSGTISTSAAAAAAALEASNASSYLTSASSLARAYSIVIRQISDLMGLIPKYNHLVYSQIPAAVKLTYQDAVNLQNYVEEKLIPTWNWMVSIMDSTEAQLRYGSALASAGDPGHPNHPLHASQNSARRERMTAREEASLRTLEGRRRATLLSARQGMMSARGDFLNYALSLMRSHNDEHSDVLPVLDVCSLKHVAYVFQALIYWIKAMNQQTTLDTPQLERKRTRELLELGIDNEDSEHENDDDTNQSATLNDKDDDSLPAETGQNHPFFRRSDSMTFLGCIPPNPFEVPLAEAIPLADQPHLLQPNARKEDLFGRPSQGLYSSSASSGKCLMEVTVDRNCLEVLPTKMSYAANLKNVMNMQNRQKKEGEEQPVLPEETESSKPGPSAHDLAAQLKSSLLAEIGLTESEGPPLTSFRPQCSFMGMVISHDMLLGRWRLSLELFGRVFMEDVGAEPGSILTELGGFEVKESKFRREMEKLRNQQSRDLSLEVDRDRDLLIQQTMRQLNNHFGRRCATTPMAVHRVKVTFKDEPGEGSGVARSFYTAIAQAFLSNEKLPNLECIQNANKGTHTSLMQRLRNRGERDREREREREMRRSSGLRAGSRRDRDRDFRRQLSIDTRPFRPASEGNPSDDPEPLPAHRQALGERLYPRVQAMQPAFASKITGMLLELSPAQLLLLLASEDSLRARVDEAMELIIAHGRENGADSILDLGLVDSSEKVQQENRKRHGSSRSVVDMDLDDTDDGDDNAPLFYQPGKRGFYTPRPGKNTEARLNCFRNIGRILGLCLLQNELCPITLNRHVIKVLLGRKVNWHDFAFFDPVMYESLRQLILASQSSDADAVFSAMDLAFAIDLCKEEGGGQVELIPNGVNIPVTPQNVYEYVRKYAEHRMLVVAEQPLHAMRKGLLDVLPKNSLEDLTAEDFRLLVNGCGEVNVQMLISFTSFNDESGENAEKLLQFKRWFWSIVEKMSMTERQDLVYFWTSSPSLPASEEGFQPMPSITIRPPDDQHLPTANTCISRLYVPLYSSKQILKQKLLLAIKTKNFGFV
# This is one part of the list. The data scatter; read single values as rough.
# Compound: ClCC(=O)N[C@@H]1CCCc2ccccc12
# Experiment: log2 mean competition ratio of IA-DTB cysteine labelling (DMSO/compound) (log2 ratio); higher = stronger cysteine engagement by compound
# Details: 50 µM; treatment time: 4 h; cell line lysate: HEK293T
# Description: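 IA-DTB competitive cysteine chemoproteomics in HEK293T RIPA lysate. Lysates were treated with compound 29 or 30 at 50 or 200 µM for 4 h, then IA-DTB (500 µM, 1 h), trypsin-digested, NeutrAvidin-enriched and analysed by diaPASEF. Competition ratio = intensity DMSO / intensity compound (n=4 treated, n=64 DMSO); binding: mean log2 CR ≥ 1 and p ≤ 0.05 plus QC filters. Target is the cysteine site.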
row,Target,log2 mean competition ratio
1,UNC45A C223 (UniProt Q9H3U1),-0.0751
2,USP9X C1061 (UniProt Q93008),0.36
3,UGP2 C123,0.109
4,USP24 C873 (UniProt Q9UPU5),0.742
5,VPS33B C546 (UniProt Q9H267),0.312
6,UPP1 C162 (UniProt Q16831),0.0324
7,UBXN2B C127 (UniProt Q14CS0),0.175
8,VLDLR C331 (UniProt P98155),-0.0354
9,UCK2 C241 (UniProt Q9BZX2),-0.101
10,VPS26C C243 (UniProt O14972),-0.337
11,UTP4 C67 (UniProt Q969X6),-0.161
12,USP9X C673 (UniProt Q93008),0.0871
13,USP3 C157 (UniProt Q9Y6I4),-0.295
14,ULBP3 C67,0.04
15,USP9X C577 (UniProt Q93008),-0.396
16,UBR5 C2084 (UniProt O95071),0.0154
17,UTP6 C175 (UniProt Q9NYH9),0.287
18,UBR5 C2094 (UniProt O95071),0.0246
19,UPF3B C319 (UniProt Q9BZI7),-0.108
20,VCL C85 (UniProt P18206),-0.0329

# Same assay, conditions: 200 µM; treatment time: 4 h; cell line lysate: HEK293T
row,Target,log2 mean competition ratio
1,UNC45A C223 (UniProt Q9H3U1),-0.103
2,USP9X C1061 (UniProt Q93008),-0.19
3,UGP2 C123,-0.0529
4,USP24 C873 (UniProt Q9UPU5),0.179
5,VPS33B C546 (UniProt Q9H267),-0.079
6,UPP1 C162 (UniProt Q16831),0.119
7,UBXN2B C127 (UniProt Q14CS0),0.158
8,VLDLR C331 (UniProt P98155),0.44
9,UCK2 C241 (UniProt Q9BZX2),0.172
10,VPS26C C243 (UniProt O14972),-0.0458
11,UTP4 C67 (UniProt Q969X6),0.00833
12,USP9X C673 (UniProt Q93008),-0.251
13,USP3 C157 (UniProt Q9Y6I4),0.593
14,ULBP3 C67,-0.0802
15,USP9X C577 (UniProt Q93008),-0.157
16,UBR5 C2084 (UniProt O95071),0.0469
17,UTP6 C175 (UniProt Q9NYH9),0.0081
18,UBR5 C2094 (UniProt O95071),-0.0591
19,UPF3B C319 (UniProt Q9BZI7),-0.161
20,VCL C85 (UniProt P18206),-0.0643
